Experimental data: PubChem BioAssay AID1224830 (NIAID, 2016)

- Assay: 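Regulators of TLR4 signalling towards TNF-alpha in macrophage-like cells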 (primary screen)
- System: human THP-1 monocytic leukaemia cells, TNF dual-luciferase reporter clone, PMA-differentiated to macrophage-like cells
- Knock-down reagent: siRNA pool against human genes, 50 nM
- Duration: LPS for 4 h, given about 3 days after siRNA transfection
- Treatment: bacterial LPS (TLR4 ligand), 10 ng/ml
- Measurement: 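Ratio of firefly to renilla light, scaled to the plate median and expressed as a robust z-score per replicate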
- Direction: TNF reporter robust z-score: higher = stronger TNF reporter response to LPS
- Active means: 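a well is active when its z-score exceeds 2.8 or falls below -1.5; control wells carry no call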
Here is a random part of about 18,000 reagents. Of all reagents, about 2,900 (16%) got an active call. 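Calls are made per well; low scores hint the gene aids the LPS response, high scores that it dampens it.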 Unmarked entries are inactive. Repeated entries: four replicate wells of each siRNA pool.

The first 5 records as a preview:
gene	TNF reporter robust z-score
ZFHX2	-0.48
ZFHX2	-0.32
ZFHX2	-0.86
ZFHX2	-0.06
B3GAT1	-0.58

The listing, from the start:
gene	TNF reporter robust z-score
ZFHX2	-0.48
ZFHX2	-0.32
ZFHX2	-0.86
ZFHX2	-0.06
B3GAT1	-0.58
B3GAT1	-0.32
B3GAT1	-0.84
B3GAT1	-0.06
SLITRK3	-0.06
SLITRK3	2.74
SLITRK3	-0.2
SLITRK3	-0.62
DMTF1	-0.12
DMTF1	0.19
DMTF1	-0.86
DMTF1	0.82
SRARP	-0.47
SRARP	-0.4
SRARP	0.01
SRARP	-0.01
CDK1	-1.03
CDK1	-0.69
CDK1	0.5
CDK1	-0.55
DNAJC7	-0.96
DNAJC7	1.29
DNAJC7	0.01
DNAJC7	-0.59
SLC7A3	3.59 (active)
SLC7A3	0.69
SLC7A3	0.06
SLC7A3	-0.8
RTL4	0.24
RTL4	0.56
RTL4	0.25
RTL4	0.43
SH3TC1	-0.38
SH3TC1	2.83 (active)
SH3TC1	-0.46
SH3TC1	1.68
CIMAP1D	1.22
CIMAP1D	0.9
CIMAP1D	0.22
CIMAP1D	1.35
TCFL5	-0.76
TCFL5	-0.35
TCFL5	0.52
TCFL5	0.34
PIBF1	0.53
PIBF1	0.88
PIBF1	0.72
PIBF1	0.45
DUSP26	0.25
DUSP26	-0.09
DUSP26	0.58
DUSP26	0.93
TMEM266	0.35
TMEM266	-0.24
TMEM266	0.36
TMEM266	0.8
SPN	-1.38
SPN	-0.6
SPN	-0.5
SPN	-0.22
KBTBD4	-0.43
KBTBD4	0.89
KBTBD4	0.25
KBTBD4	-0.03
PPIH	-1.4
PPIH	-0.77
PPIH	-0.93
PPIH	-1.31
TNS2	-0.98
TNS2	-1.14
TNS2	-1.05
TNS2	0.86
NFE2	0.21
NFE2	0.31
NFE2	1.78
VAMP8	0.37
VAMP8	0.5
VAMP8	-0.39
VAMP8	3.35 (active)
COG3	0.96
COG3	0.81
COG3	1.83
COG3	1.71
FER	-0.47
FER	-0.54
FER	0.37
FER	-0.19
CHRNG	-1.24
CHRNG	0.59
CHRNG	-0.4
CHRNG	0.83
SLC36A4	0.24
SLC36A4	0.56
SLC36A4	0.05
SLC36A4	0.89
LIMS3	-0.92
LIMS3	-0.57
LIMS3	-0.48
LIMS3	-0.18
PPIE	-0.15
PPIE	0
PPIE	-0.54
PPIE	-0.37
CHCHD10	-0.86
CHCHD10	-0.73
CHCHD10	-1.24
CHCHD10	-1.02
